PMC6615859
Results are given in words; binding and its absence hold for the method and conditions named. In cells and extracts the contact can be indirect. Some entries that bind do so weakly or less than the wild type. For some assays here: Where a sequence is shown, tags or fusion partners need not be part of it.

B1: KHNYN-1-FLAG, O15037 1-678 (protein)
chain: MPTWGARPASPDRFAVSAEAENKVREQQPHVERIFSVGVSVLPKDCPDNPHIWLQLEGPKENASRAKEYLKGLCSPELQDEIHYPPKLHCIFLGAQGFFLDCLAWSTSAHLVPRAPGSLMISGLTEAFVMAQSRVEELAERLSWDFTPGPSSGASQCTGVLRDFSALLQSPGDAHREALLQLPLAVQEELLSLVQEASSGQGPGALASWEGRSSALLGAQCQGVRAPPSDGRESLDTGSMGPGDCRGARGDTYAVEKEGGKQGGPREMDWGWKELPGEEAWEREVALRPQSVGGGARESAPLKGKALGKEEIALGGGGFCVHREPPGAHGSCHRAAQSRGASLLQRLHNGNASPPRVPSPPPAPEPPWHCGDRGDCGDRGDVGDRGDKQQGMARGRGPQWKRGARGGNLVTGTQRFKEALQDPFTLCLANVPGQPDLRHIVIDGSNVAMVHGLQHYFSSRGIAIAVQYFWDRGHRDITVFVPQWRFSKDAKVRESHFLQKLYSLSLLSLTPSRVMDGKRISSYDDRFMVKLAEETDGIIVSNDQFRDLAEESEKWMAIIRERLLPFTFVGNLFMVPDDPLGRNGPTLDEFLKKPARTQGSSKAQHPSRGFAEHGKQQQGREEEKGSGGIRKTRETERLRRQLLEVFWGQDHKVDFILQREPYCRDINQLSEALLSLNF
B2: ZAP-S, endogenous in HEK293T cells, Q7Z2W4-2 1-699 (protein)
chain: MADPEVCCFITKILCAHGGRMALDALLQEIALSEPQLCEVLQVAGPDRFVVLETGGEAGITRSVVATTRARVCRRKYCQRPCDNLHLCKLNLLGRCNYSQSERNLCKYSHEVLSEENFKVLKNHELSGLNKEELAVLLLQSDPFFMPEICKSYKGEGRQQICNQQPPCSRLHICDHFTRGNCRFPNCLRSHNLMDRKVLAIMREHGLNPDVVQNIQDICNSKHMQKNPPGPRAPSSHRRNMAYRARSKSRDRFFQGSQEFLASASASAERSCTPSPDQISHRASLEDAPVDDLTRKFTYLGSQDRARPPSGSSKATDLGGTSQAGTSQRFLENGSQEDLLHGNPGSTYLASNSTSAPNWKSLTSWTNDQGARRKTVFSPTLPAARSSLGSLQTPEAVTTRKGTGLLSSDYRIINGKSGTQDIQPGPLFNNNADGVATDITSTRSLNYKSTSSGHREISSPRIQDAGPASRDVQATGRIADDADPRVALVNDSLSDVTSTTSSRVDDHDSEEICLDHLCKGCPLNGSCSKVHFHLPYRWQMLIGKTWTDFEHMETIEKGYCNPGIHLCSVGSYTINFRVMSCDSFPIRRLSTPSSVTKPANSVFTTKWIWYWKNESGTWIQYGEEKDKRKNSNVDSSYLESLYQSCPRGVVPFQAGSRNYELSFQGMIQTNIASKTQKDVIRRPTFVPQWYVQQMKRGPE

Legend:
[1] = target: ZAP-S, endogenous in HEK293T cells (human (endogenous in HEK293T)), Q7Z2W4; test: co-IP; anti-ZAP antibody (Abcam) and Protein G Dynabeads on post-nuclear supernatants of HEK293T cells transfected with KHNYN-FLAG; blot for FLAG; lysis buffer 0.5% NP-40, 150 mM KCl, 10 mM HEPES pH 7.5, 3 mM MgCl2; 4°C; details: remark: other sources report otherwise
[2] = target: KHNYN-1-FLAG (human), O15037; test: co-IP; anti-FLAG antibody and Protein G Dynabeads on post-nuclear supernatants of HEK293T cells transfected with KHNYN-FLAG; blots for ZAP and TRIM25; lysis buffer 0.5% NP-40, 150 mM KCl, 10 mM HEPES pH 7.5, 3 mM MgCl2; 4°C; also in Control, TRIM25 CRISPR and ZAP CRISPR HEK293T cells; details: remark: other sources report otherwise

Binder | binding [1] | binding [2]
B1 | binds | 
B2 |  | binds
